Source: PubChem BioAssay AID256 (DTP/NCI, 2004)
The list does not hold the whole screen: it is rich in T/C values a quarter to a half above the control, in often repeated tests (any T/C) and in doses without a T/C. Other doses and runs of a compound stand elsewhere. T/C is the treated group as % of the vehicle group. Some doses have a count of surviving animals in place of a T/C: the source files T/C as zero there, which appears to mark a toxic dose or a test without result, not a measured value. Some survivor counts are full or nearly so, which does not show that the dose was tolerated: the source hardly ever lists a survival T/C far under the control, and the zero likely stands for such cases as well. Survivors were counted at the toxicity check, usually on the fifth day, unless a day is given; later deaths do not show. Schedules are NCI's codes, read here as Q, the interval in days (D) or hours (H), X, the number of doses. Counts like (3×) give the number of equal values in this list. Some molecules as drawn cover several salts, stereoisomers or complexes of the source; a dose is that of the sample tested. For survival time, this PubChem deposit counts one and a half times the control or more as active, and values a quarter to a half above the control carry no call in these data; other NCI protocols may use other cut-offs. Some entries were tested several times; the results are listed from low to high. Some T/C values carry the count of animals alive at the toxicity check (mostly the fifth day); where none is given, no animal had died by that day.

System: CD2F1 mice, L1210 leukemia ip, survival T/C
Test: NCI In Vivo Anticancer Drug Screen. Data for tumor model L1210 Leukemia (intraperitoneal) in CD2F1 (CDF1) mice
Details: higher T/C = longer survival
How it was run: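 Activity against a transplanted murine tumor was judged by comparing the compound group with a vehicle group. The outcome in the treated animals was divided by that in the controls.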

[1] = T/C endpoint: mean survival time, dose: 200.0 mg/kg/injection, schedule: Q01DX005 (ip), vehicle: saline
[2] = T/C endpoint: mean survival time, dose: 400.0 mg/kg/injection, schedule: Q01DX005 (ip), vehicle: saline
[3] = T/C endpoint: mean survival time, dose: 50.0 mg/kg/injection, schedule: Q04DX002 (ip), vehicle: saline with Tween-80
[4] = T/C endpoint: mean survival time, dose: 100.0 mg/kg/injection, schedule: Q04DX002 (ip), vehicle: saline with Tween-80
[5] = T/C endpoint: mean survival time, dose: 200.0 mg/kg/injection, schedule: Q04DX002 (ip), vehicle: saline with Tween-80
[6] = T/C endpoint: mean survival time, dose: 400.0 mg/kg/injection, schedule: Q04DX002 (ip), vehicle: saline with Tween-80
[7] = T/C endpoint: mean survival time, dose: 200.0 mg/kg/injection, schedule: Q04DX003 (ip), vehicle: saline with Tween-80
[8] = T/C endpoint: mean survival time, dose: 400.0 mg/kg/injection, schedule: Q04DX003 (ip), vehicle: saline with Tween-80
[9] = T/C endpoint: mean survival time, dose: 100.0 mg/kg/injection, schedule: Q04DX003 (ip), vehicle: saline with Tween-80
[10] = T/C endpoint: mean survival time, dose: 400.0 mg/kg/injection, schedule: Q01DX001 (ip), vehicle: saline
[11] = T/C endpoint: mean survival time, dose: 100.0 mg/kg/injection, schedule: Q01DX001 (ip), vehicle: saline with Tween-80
[12] = T/C endpoint: mean survival time, dose: 25.0 mg/kg/injection, schedule: Q01DX009 (ip), vehicle: saline
[13] = T/C endpoint: mean survival time, dose: 50.0 mg/kg/injection, schedule: Q01DX009 (ip), vehicle: saline
[14] = T/C endpoint: mean survival time, dose: 100.0 mg/kg/injection, schedule: Q01DX009 (ip), vehicle: saline
[15] = T/C endpoint: mean survival time, dose: 200.0 mg/kg/injection, schedule: Q01DX009 (ip), vehicle: saline
[16] = T/C endpoint: mean survival time, dose: 100.0 mg/kg/injection, schedule: Q04DX003 (ip), vehicle: Klucel (hydroxypropylcellulose) (HPC)
[17] = T/C endpoint: mean survival time, dose: 200.0 mg/kg/injection, schedule: Q04DX003 (ip), vehicle: Klucel (hydroxypropylcellulose) (HPC)
[18] = T/C endpoint: mean survival time, dose: 400.0 mg/kg/injection, schedule: Q04DX003 (ip), vehicle: Klucel (hydroxypropylcellulose) (HPC)
[19] = T/C endpoint: mean survival time, dose: 75.0 mg/kg/injection, schedule: Q01DX009 (ip), vehicle: Klucel (hydroxypropylcellulose) (HPC)

Nc1cc2[nH]cnc2c(=O)[nH]1
T/C (T/C endpoint: mean survival time, dose: 25.0 mg/kg/injection, schedule: Q01DX009 (ip), vehicle: suspension in saline): 126 % of control
T/C (T/C endpoint: mean survival time, dose: 50.0 mg/kg/injection, schedule: Q01DX009 (ip), vehicle: suspension in saline): 125 and 139 % of control
T/C (T/C endpoint: mean survival time, dose: 100.0 mg/kg/injection, schedule: Q01DX005 (ip), vehicle: saline): 125 and 127 % of control
T/C (T/C endpoint: mean survival time, dose: 100.0 mg/kg/injection, schedule: Q01DX009 (ip), vehicle: suspension in saline): 138 and 146 % of control
T/C [1]: 133 and 149 % of control
T/C [2]: 147 % of control [2 of 3 alive]
survivor count [2]: 0 of 3
survivor count (T/C endpoint: mean survival time, dose: 400.0 mg/kg/injection, schedule: Q01DX009 (ip), vehicle: suspension in saline): 3 of 6

CN(C)c1nc(Cl)cc2c1ncn2C1OC(CO)C(O)C1O (stereo not given)
T/C [1]: 148 % of control

c1ccc(CNCCNCc2ccccn2)nc1
survivor count [3]: 0 of 3
survivor count [4]: 0 of 3
survivor count [5]: 0 of 3
survivor count [6]: 0 of 3

Nc1ccccc1Nc1ccccc1
survivor count (T/C endpoint: mean survival time, dose: 400.0 mg/kg/injection, schedule: Q01DX001 (ip), vehicle: saline + alcohol): 3 of 6

Cc1cc(NC(=S)SCc2ccc3c(c2)OCO3)ccc1Cl
T/C (T/C endpoint: median survival time, dose: 100.0 mg/kg/injection, schedule: Q01DX009 (ip), vehicle: Klucel (hydroxypropylcellulose) (HPC), evaluated on day 20): 126 % of control
T/C (T/C endpoint: median survival time, dose: 100.0 mg/kg/injection, schedule: Q01DX009 (ip), vehicle: Klucel (hydroxypropylcellulose) (HPC), evaluated on day 30): 137 % of control
survivor count (T/C endpoint: median survival time, dose: 200.0 mg/kg/injection, schedule: Q01DX009 (ip), vehicle: Klucel (hydroxypropylcellulose) (HPC)): 4 of 6 (2×)
survivor count (T/C endpoint: median survival time, dose: 400.0 mg/kg/injection, schedule: Q01DX009 (ip), vehicle: Klucel (hydroxypropylcellulose) (HPC)): 1 of 6

C=C(C)CN=C=S
survivor count [7]: 0 of 6
survivor count [8]: 0 of 6

CC(=O)ON=C1C=CC(=C(C#N)c2ccccc2)C=C1
survivor count [9]: 6 of 6
survivor count [8]: 2 of 6

CCCCCCCCCCCCCCCCCCNC(=O)Nc1cccc(OC)c1
survivor count [4]: 3 of 3

OC1CCCC2CCCNC12 (stereo not given)
survivor count (T/C endpoint: mean survival time, dose: 100.0 mg/kg/injection, schedule: Q01DX009 (ip), vehicle: Klucel (hydroxypropylcellulose) (HPC)): 0 of 6
survivor count (T/C endpoint: mean survival time, dose: 100.0 mg/kg/injection, schedule: Q01DX009 (ip), vehicle: saline with Tween-80): 0 of 6
survivor count (T/C endpoint: mean survival time, dose: 200.0 mg/kg/injection, schedule: Q01DX009 (ip), vehicle: Klucel (hydroxypropylcellulose) (HPC)): 0 of 6

Cc1ccc(S(=O)(=O)NOCCCCONS(=O)(=O)c2ccc(C)cc2)cc1
survivor count [7]: 6 of 6
survivor count [8]: 6 of 6

CCN(CC)/C(N)=N\c1nc(C)c2cc(Cl)ccc2n1
survivor count (T/C endpoint: mean survival time, dose: 200.0 mg/kg/injection, schedule: Q01DX001 (ip), vehicle: saline): 0 of 4
survivor count [10]: 0 of 4

N=C(N)SCc1c(Cl)c(Cl)c(Cl)c(Cl)c1Cl
survivor count [4]: 3 of 3
survivor count [5]: 1 of 3
survivor count [6]: 0 of 3

CC(=O)/C(N=O)=C(/C)O
survivor count [11]: 6 of 6

CNc1nc2c(N)ncnc2n1C1OC(CO)C(O)C1O (stereo not given)
T/C [12]: 128 % of control
survivor count [13]: 2 of 6
survivor count [14]: 1 of 6
T/C [4]: 133 % of control [2 of 3 alive]
survivor count (T/C endpoint: mean survival time, dose: 100.0 mg/kg/injection, schedule: Q04DX002 (ip), vehicle: saline): 1 of 6
survivor count [15]: 1 of 6
survivor count [5]: 0 of 3
survivor count [6]: 1 of 3

CN=C(NC)N/N=C(/c1ccc(Br)cc1)c1ccc(C(F)(F)F)cc1
survivor count [3]: 3 of 3
survivor count [9]: 3 of 6
survivor count [7]: 3 of 6
survivor count (T/C endpoint: mean survival time, dose: 400.0 mg/kg/injection, schedule: Q01DX001 (ip), vehicle: saline sonified): 0 of 6

NNC(=O)c1ccccc1O
survivor count [16]: 6 of 6
survivor count [17]: 6 of 6
survivor count [18]: 1 of 6

C1CN(SSN2CCOCC2)CCO1
survivor count [16]: 3 of 3
survivor count [17]: 1 of 3
survivor count [18]: 0 of 3
survivor count [8]: 0 of 3

COC(=O)C1=CCC=CC1
survivor count (T/C endpoint: mean survival time, dose: 400.0 mg/kg/injection, schedule: Q01DX009 (ip), vehicle: saline with Tween-80): 2 of 6

CCN(C)N=Nc1ccc(NC(N)=O)cc1
T/C (T/C endpoint: mean survival time, dose: 18.75 mg/kg/injection, schedule: Q01DX009 (ip), vehicle: Klucel (hydroxypropylcellulose) (HPC)): 133 % of control
T/C (T/C endpoint: mean survival time, dose: 37.5 mg/kg/injection, schedule: Q01DX009 (ip), vehicle: Klucel (hydroxypropylcellulose) (HPC)): 146 % of control
T/C [19]: 130 % of control
survivor count [19]: 5 of 6
survivor count (T/C endpoint: mean survival time, dose: 150.0 mg/kg/injection, schedule: Q01DX009 (ip), vehicle: Klucel (hydroxypropylcellulose) (HPC)): 0 of 6
survivor count (T/C endpoint: mean survival time, dose: 300.0 mg/kg/injection, schedule: Q01DX009 (ip), vehicle: Klucel (hydroxypropylcellulose) (HPC)): 0 of 6

CC(C)CCNC(=O)CI
survivor count [10]: 1 of 4

CC(CC(C)O)=NCCN=C(C)CC(C)O.[Ni] (stereo not given)
survivor count (T/C endpoint: mean survival time, dose: 50.0 mg/kg/injection, schedule: Q01DX001 (ip), vehicle: saline): 5 of 6
survivor count [11]: 5 of 6
survivor count (T/C endpoint: mean survival time, dose: 200.0 mg/kg/injection, schedule: Q01DX001 (ip), vehicle: saline with Tween-80): 0 of 6
survivor count (T/C endpoint: mean survival time, dose: 400.0 mg/kg/injection, schedule: Q01DX001 (ip), vehicle: saline with Tween-80): 0 of 6

O=C(Nc1ccccc1C(=O)O)c1ccccc1
survivor count [7]: 3 of 6
survivor count [8]: 1 of 6

O=C1C2C3C=CC(C2C(=O)N1CO)C1C2C(=O)N(CO)C(=O)C2C31 (stereo not given)
T/C (T/C endpoint: median survival time, dose: 18.0 mg/kg/injection, schedule: Q01DX009 (ip), vehicle: water): 140 % of control
T/C (T/C endpoint: median survival time, dose: 30.0 mg/kg/injection, schedule: Q01DX009 (ip), vehicle: water): 142 % of control
survivor count (T/C endpoint: median survival time, dose: 100.0 mg/kg/injection, schedule: Q01DX009 (ip), vehicle: water): 0 of 6
survivor count (T/C endpoint: median survival time, dose: 138.9 mg/kg/injection, schedule: Q01DX009 (ip), vehicle: water): 0 of 3

CCN(CC)[P+](c1ccccc1O)(N(CC)CC)N(CC)CC
survivor count (T/C endpoint: mean survival time, dose: 1.56 mg/kg/injection, schedule: Q01DX009 (ip), vehicle: saline): 0 of 6
survivor count (T/C endpoint: mean survival time, dose: 3.12 mg/kg/injection, schedule: Q01DX009 (ip), vehicle: saline): 0 of 6
survivor count (T/C endpoint: mean survival time, dose: 6.25 mg/kg/injection, schedule: Q01DX009 (ip), vehicle: saline): 0 of 6
survivor count (T/C endpoint: mean survival time, dose: 12.5 mg/kg/injection, schedule: Q01DX009 (ip), vehicle: saline): 0 of 6
survivor count [12]: 0 of 6
survivor count [13]: 0 of 6
survivor count [14]: 0 of 6
survivor count [15]: 0 of 6
survivor count (T/C endpoint: mean survival time, dose: 400.0 mg/kg/injection, schedule: Q01DX009 (ip), vehicle: saline): 0 of 6

C[N+](C)(C)CCCCC[N+](C)(C)C
survivor count (T/C endpoint: mean survival time, dose: 100.0 mg/kg/injection, schedule: Q04DX003 (ip), vehicle: saline): 0 of 6
survivor count [7]: 0 of 6
survivor count (T/C endpoint: mean survival time, dose: 200.0 mg/kg/injection, schedule: Q04DX003 (ip), vehicle: saline): 0 of 6
survivor count [8]: 0 of 6
survivor count (T/C endpoint: mean survival time, dose: 400.0 mg/kg/injection, schedule: Q04DX003 (ip), vehicle: saline): 0 of 6
